Data as given in PubChem BioAssay AID504834 (National Center for Advancing Translational Sciences (NCATS), 2011).
Values joined by “and” are separate entries in the source; they are usually repeats but may differ in a detail not shown here. Identical values can stand only once. The campaign covered roughly 320,000 compounds. About 22,000 (6.9%) were called active. The shares of active, inactive and inconclusive entries below differ from those in the screen. Calls come from the whole dose curve; as a rule, active = well fitted inhibition curve with a large enough effect; inconclusive = small, poorly fitted or top-dose-only effect, or another doubt; inactive = no such curve, though single readings can be large or run the other way. Where the call is inconclusive, the potency comes from a doubtful curve fit.

Experiment: Primary qHTS for delayed death inhibitors of the malarial parasite plastid, 96 hour incubation
Conditions: P. falciparum luciferase reporter growth; series mostly up to 28.7 µM
Method in brief: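 Cell-based qHTS: luciferase-tagged P. falciparum in erythrocytes (2% hematocrit, 0.05% parasitemia final) incubated with compounds for 96 hours, 37 C, 5% CO2; luciferase detection reagent then added and luminescence measured.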
% is set by controls: 0 for no effect and ±100 for the full control effect; potency is the fitted concentration of half-maximal effect.

| SMILES | Potency | activity change, negative = inhibition |
| --- | --- | --- |
| O=C(CCN1CCOCC1)NNC(=O)/C(=C/c1ccccc1)NC(=O)c1ccccc1 | inactive | – |
| COCCCNC(=O)Nc1ccc(F)cc1F | inconclusive: 2.08 µM [inhibitor, single point] | – |
| Cc1ccc(OCCNC(=O)c2ccccc2SCC(=O)N2CCCC2)cc1 | inconclusive: 18.5 µM [inhibitor, partial curve, poor fit] | – |
| C=CCn1c(-c2cccc(OC)c2OC)n[nH]c1=S | – | inactive: -41.5% [at 1.15 µM] |
| CC(C)n1ncc2c(C(=O)NCC(=O)Nc3ccccc3Br)cc(C3CC3)nc21 | inconclusive: 14.7 µM [inhibitor, partial curve, poor fit] | – |
| COc1cc(Cl)c(C)cc1NC(=O)CSc1ccccc1 | inconclusive: 18.5 µM [inhibitor, partial curve, poor fit] | – |
| CCOc1ccc(OCCC(=O)Nc2cccc(S(=O)(=O)N3CCCC3)c2)cc1 | active: 14.7 µM | – |
| Cc1ccc(NC(=O)C(Cc2ccccc2)N2C(=O)C3C4CCC(C4)C3C2=O)cc1Cl (centres undefined) | inconclusive: 10.4 µM [inhibitor, single point] | – |
| CCS(=O)CC(=O)Nc1c(-c2ccccc2)oc2ccccc2c1=O (centres undefined) | inactive | – |
| COc1cccc(/C=N/N2CCN(C)CC2)c1 | inactive | – |
| C=CCN1C(=O)/C(=C2/C(=O)N(CC(=O)O)c3ccccc32)S/C1=N/c1nccs1 | inactive | – |
| COc1ccc(CCNS(=O)(=O)c2cc3c4c(c2)C(C)C(=O)N4CCC3)cc1OC (centres undefined) | inconclusive: 7.38 µM [inhibitor, partial curve] | – |
| NS(=O)(=O)c1ccc(NC(=O)COC(=O)/C(=C/c2cccs2)c2cccs2)cc1 | inactive | – |
| O=C(/C(C=Nc1ccc(F)cc1)=C(/O)c1ccco1)C(F)(F)F | inactive | – |
| COc1ccc(OC)c(S(=O)(=O)Nc2cc3c4c(c2)CCN4C(=O)CC3)c1 | inconclusive: 16.5 µM [inhibitor, partial curve] | – |
| COC(=O)C1=C(N)Oc2cc(C)n(CC3CCCO3)c(=O)c2C1c1ccc(Cl)c(Cl)c1 (centres undefined) | inconclusive: 14.7 µM [inhibitor, single point] | – |
| COc1ccc(OC)c2c1CC(C)(C)NC2=O | inconclusive: 10.4 µM [inhibitor, single point] | – |
| N#CCSc1nc2scc(-c3cccs3)c2c(=O)n1CCc1ccccc1 | inconclusive: 0.928 µM [inhibitor, partial curve, poor fit] | – |
| Cc1nonc1CC(=O)NC1CC(C)(C)Cc2c1cnn2-c1ccc(F)cc1 (centres undefined) | inconclusive: 16.5 µM [inhibitor, single point] | – |
| NC(N)=NC(=O)c1nc(Cl)c(N)nc1N | inactive and inconclusive: 16.5 µM [inhibitor, single point] | – |
| O=C1CCC/C(=N\NC(=O)c2ccc(NS(=O)(=O)c3ccc(Br)cc3)cc2)C1 | inactive | – |
| CCOC(=O)N1CCN(CCC(=O)Nc2ccc(C)cc2)CC1 | inconclusive: 18.5 µM [inhibitor, single point] | – |

| SMILES | Potency | activity change, negative = inhibition |
| --- | --- | --- |
| CCOC(=O)C(CC)(CC)C(=O)/C=C/c1ccc(Br)cc1 | inconclusive: 11.7 µM [inhibitor, single point] | – |
| CN1c2ccccc2C(C)(C)C12C=Nc1c(ccc3ccccc13)O2 (centres undefined) | inconclusive: 13.1 µM [inhibitor, single point] | – |
| CCOc1cc2[nH]c(=S)n(CCN3CCC(C)CC3)c(=O)c2cc1OCC | inconclusive: 7.38 µM [inhibitor, single point] | – |
| CC1CSc2ccccc2NC1=S (centres undefined) | inactive | – |
| CCCN1CCN(C(=O)CCCn2c(C)c3cnn(-c4ccccc4)c(=O)c3c2C)CC1 | inconclusive: 6.57 µM [inhibitor, partial curve] | – |
| CCC(C)(C)NC(=O)C(c1ccncc1)N(C(=O)c1sc(C)nc1C)c1ccc(F)cc1 (centres undefined) | inconclusive: 16.5 µM [inhibitor, single point] | – |
| Cc1sc2ncnc(N3CCC(C(=O)NNC(=O)COc4ccccc4F)CC3)c2c1C | inconclusive: 18.5 µM [inhibitor, single point] | – |
| O=C(CCNS(=O)(=O)c1cccc2nsnc12)NCc1ccccc1Cl | inactive | – |
| Cn1nc(C(C)(C)C)c([N+](=O)[O-])c1C(=O)NC1CCCCC1 | inactive | – |
| O=C(N/N=C/C(Br)=C/c1ccccc1)NC1CCCCC1 | inconclusive: 8.28 µM [inhibitor, single point] | – |
| COCCCNC(=O)C(C#N)c1nc2ccccc2nc1N1CCN(Cc2ccccc2)CC1 (centres undefined) | inconclusive: 14.7 µM [inhibitor, single point] | – |
| CC1COc2ccccc2N1C(=O)c1ccc(Cl)cc1 (centres undefined) | inactive | – |
| N#C/C(=C\c1ccccc1[N+](=O)[O-])C(=O)NCc1ccccc1 | inconclusive: 18.5 µM [inhibitor, single point] | – |
| Cc1ccc(S(=O)(=O)N(C)C)cc1-n1c(SCC(=O)Nc2ccc(F)cc2Cl)nc2ccccc2c1=O | inconclusive: 2.94 µM [inhibitor, single point] | – |
| O=C1c2cnc3nc(SCc4ccc(Cl)cc4)nn3c2CC2c3ccccc3CCN12 (centres undefined) | inactive | – |
| COc1ccc(NC(=O)COc2cccc3c2CCNC3=O)cc1 | inconclusive: 13.1 µM [inhibitor, single point] | – |
| Cc1cccc(NC(=S)N2CCCN(c3ncccc3[N+](=O)[O-])CC2)c1 | inconclusive: 10.4 µM [inhibitor, single point] | – |
| O=c1oc2c(O)c(O)cc3c(=O)oc4c(O)c(O)cc1c4c23 | active: 3.38 µM and active: 3.7 µM | – |
| O=Cc1c(Cl)[nH]c(=O)n1-c1ccccc1 | inconclusive: 13.1 µM [inhibitor, single point] | – |
| O=C1C=C(c2ccc(C(=O)O)cc2)C[C@@H](c2ccc3c(c2)OCO3)C1 | inactive | – |
| Cc1cc(NC(=O)COC(=O)C2CCN(C(=O)c3ccc(Cl)cc3)CC2)no1 | inconclusive: 9.28 µM [inhibitor, partial curve, poor fit] | – |
| Cc1cccc(OCCNc2cc(N3CCOCC3)ccc2[N+](=O)[O-])c1 | inconclusive: 8.28 µM [inhibitor, partial curve] | – |
